From article PMC11070408 (EJNMMI Radiopharmacy and Chemistry, 2024)

Assay: general procedure: peptide synthesis; Rink amide; DIC/HOBt
Conditions: conjugation step, overall from 3b

H-K(Benzoyl(2,3-diOH))K(Benzoyl(2,3-diOH))K(Benzoyl(2,3-diOH))K(Benzoyl(2,3-diOH))-NH2 (SMILES NC(=O)[C@H](CCCCNC(=O)c1cccc(O)c1O)NC(=O)[C@H](CCCCNC(=O)c1cccc(O)c1O)NC(=O)[C@H](CCCCNC(=O)c1cccc(O)c1O)NC(=O)[C@@H](N)CCCCNC(=O)c1cccc(O)c1O)
conjugation yield: 16% overall yield

The star is where a group is joined. Benzoyl(2,3-diOH) = O=C(c1cccc(O)c1O)*
